No constants are given. Whether binding was seen depends on the method and setting. In cells and extracts the contact can be indirect. Some binding calls cover weakened binding; strength is not graded here.
Columns and labels:
[1] = target: apoptotic peptidase activating factor 1 (mouse (endogenous in MEF)) (UniProt O88879); test: condition: only cells transfected with BH3M MCL-1ES instead of WT MCL-1ES; co-IP; apoptosome complexes in bax-/- bak-/- MEF cells transfected with BH3M MCL-1ES; immunoprecipitation and western blot
[2] = target: apoptotic peptidase activating factor 1 (mouse (endogenous in MEF)) (UniProt O88879); test: co-IP; apoptosome complexes in bax-/- bak-/- MEF cells transfected with WT MCL-1ES; immunoprecipitation and western blot

The chains behind the UniProt entries cited, without tags or fusion partners.
UniProt O88879: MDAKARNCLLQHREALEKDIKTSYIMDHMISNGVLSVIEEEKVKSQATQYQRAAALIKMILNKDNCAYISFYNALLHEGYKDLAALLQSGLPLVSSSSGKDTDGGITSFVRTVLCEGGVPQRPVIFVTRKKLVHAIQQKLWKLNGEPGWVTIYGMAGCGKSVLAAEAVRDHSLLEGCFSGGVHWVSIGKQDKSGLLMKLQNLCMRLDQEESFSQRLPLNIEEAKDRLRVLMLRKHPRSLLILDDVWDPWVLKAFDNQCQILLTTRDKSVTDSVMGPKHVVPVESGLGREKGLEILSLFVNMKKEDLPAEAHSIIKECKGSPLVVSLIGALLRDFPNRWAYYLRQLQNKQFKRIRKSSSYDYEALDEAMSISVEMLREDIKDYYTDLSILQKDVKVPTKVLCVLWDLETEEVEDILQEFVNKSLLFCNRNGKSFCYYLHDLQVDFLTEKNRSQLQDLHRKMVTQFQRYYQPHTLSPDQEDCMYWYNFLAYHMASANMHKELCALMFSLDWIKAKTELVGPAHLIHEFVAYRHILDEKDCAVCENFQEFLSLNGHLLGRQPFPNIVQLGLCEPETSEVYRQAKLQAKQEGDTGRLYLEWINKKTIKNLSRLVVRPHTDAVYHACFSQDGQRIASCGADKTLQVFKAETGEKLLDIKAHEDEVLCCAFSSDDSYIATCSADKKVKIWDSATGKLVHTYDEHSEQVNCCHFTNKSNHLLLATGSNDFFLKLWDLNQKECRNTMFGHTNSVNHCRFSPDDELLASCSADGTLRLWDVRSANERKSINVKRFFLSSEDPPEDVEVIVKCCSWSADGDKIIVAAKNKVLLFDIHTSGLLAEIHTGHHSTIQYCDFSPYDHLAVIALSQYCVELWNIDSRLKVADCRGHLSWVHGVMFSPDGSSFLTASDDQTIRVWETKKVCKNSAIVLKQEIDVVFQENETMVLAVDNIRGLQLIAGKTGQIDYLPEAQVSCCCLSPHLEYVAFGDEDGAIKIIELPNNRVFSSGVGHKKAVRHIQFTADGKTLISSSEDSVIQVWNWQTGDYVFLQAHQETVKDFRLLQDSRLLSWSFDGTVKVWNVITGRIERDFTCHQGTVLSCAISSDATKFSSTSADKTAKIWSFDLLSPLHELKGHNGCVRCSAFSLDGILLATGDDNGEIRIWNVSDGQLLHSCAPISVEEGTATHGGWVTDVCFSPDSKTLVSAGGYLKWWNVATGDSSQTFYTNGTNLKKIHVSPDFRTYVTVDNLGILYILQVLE
UniProt P62897: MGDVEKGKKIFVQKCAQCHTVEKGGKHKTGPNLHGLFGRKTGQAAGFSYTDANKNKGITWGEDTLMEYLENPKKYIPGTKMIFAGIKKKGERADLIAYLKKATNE

binding [1]: no binding
binding [2]: binds
Substance: cytochrome c (from UniProt P62897 1-105)
